Source: PubChem BioAssay AID1159584 (Peter MacCallum Cancer Centre, 2016)

Purpose: 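Genes that CDH1-null MCF10A cells selectively depend on to survive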 (primary screen)
Cell system: human MCF10A breast epithelial cells, parental and CDH1-null
Knock-down reagent: siRNA against human genes
Measurement: 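Cell viability by CellTiter-Glo ATP luminescence, each line scaled to the mean of mock wells across plates, then CDH1-null over parental ratio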
Direction: CDH1-null / parental viability ratio: higher = CDH1-null cells survive relatively better than parental
The whole screen tested about 18,000 reagents; this is an unselected part. Further read-outs or replicates are left out here. Not stated in the record: the amount of reagent, the time to read-out.

target gene	CDH1-null / parental viability ratio
PRSS8	1.21
BAHD1	0.96
IDH3G	0.67
VTI1B	1.07
OR6B3	1.07
CHRNA1	1.21
ETFRF1	1.12
MTNAP1	0.94
OSBP	1.05
SLC15A1	0.96
PAX7	0.83
RNF222	1.05
LINC02908	1.39
FAM156A	0.82
HSF2	1.24
KASH5	0.96
MRPL38	0.86
RAB1B	1.03
METTL9	0.94
TEX2	0.65
BCAR1	0.8
SFSWAP	1.03
PON2	1.3
MAGEA4	0.94
GASK1B	0.81
LRRCC1	1.03
ATP6AP1L	1.34
VPS13C	1.04
NUP37	1.22
CLHC1	0.92
DAZ2	0.84
BBOF1	1.01
LINGO4	1.24
ZNF646	0.87
XPC	0.99
GALNT4	0.95
ESF1	0.68
PWWP2B	1.09
NBEA	0.76
EVA1A	0.8
ATP1A4	1.06
CDK8	1.06
MYDGF	1.11
PROX1	1.14
PDE6A	1.12
SLC2A10	1.32
SEC61G	0.99
ETS2-AS1	1.05
OSTC	0.8
NPAP1	0.96
LINC00207	0.81
STAU1	1.27
RPL38	1.06
LILRA3	1.37
TSHB	1.24
TTLL3	1
DNAJC27	0.9
ZNF17	0.78
DHCR24	0.82
KAT14	1.22
SLC30A3	0.96
APOL1	0.76
ARHGEF39	0.82
PIGP	0.89
PTP4A1	1.13
PCDH18	0.86
HLA-DRB3	0.9
MICALL1	1.06
CYP4F3	0.97
ZNF670	0.97
RESF1	0.95
SRD5A2	1.18
C3orf22	1.09
PERP	1.84
EBPL	1.04
EMX2	0.77
DNTTIP2	1.1
GPR3	0.65
OTOL1	0.96
BPTF	1.32
TM2D1	0.89
ZCWPW2	1.41
NDUFV1	1.22
GABRA1	1.04
SMYD3	1.11
JOSD2	1.1
PRR5-ARHGAP8	0.94

Taken from above:
LINC00207, CDH1-null / parental viability ratio: 0.81
Entry for RAB1B in “CDH1-null / parental viability ratio”: 1.03
Value for EVA1A under “CDH1-null / parental viability ratio”: 0.8
BCAR1, CDH1-null / parental viability ratio → 0.8
Entry of CHRNA1 in “CDH1-null / parental viability ratio”: 1.21
Value for BPTF under “CDH1-null / parental viability ratio”: 1.32
